According to article PMC8688524:

What was measured:
[1] = molecular target: COL6A5 H2 region; experiment: co-IP; tagged constructs co-transfected into AGS (Fig. 2B also BGC-823) cells; immunoprecipitation with anti-Flag, anti-Myc or anti-His; antibody overnight at 4 °C, protein A/G agarose 2 h at 4 °C; western blot
[2] = molecular target: COL9A3 M3 region; experiment: as above

binding [1]: binds
binding [2]: binds
B1: Flag-tagged USP3 (enzyme, UniProt Q9Y6I4 1-520)
chain: MECPHLSSSVCIAPDSAKFPNGSPSSWCCSVCRSNKSPWVCLTCSSVHCGRYVNGHAKKHYEDAQVPLTNHKKSEKQDKVQHTVCMDCSSYSTYCYRCDDFVVNDTKLGLVQKVREHLQNLENSAFTADRHKKRKLLENSTLNSKLLKVNGSTTAICATGLRNLGNTCFMNAILQSLSNIEQFCCYFKELPAVELRNGKTAGRRTYHTRSQGDNNVSLVEEFRKTLCALWQGSQTAFSPESLFYVVWKIMPNFRGYQQQDAHEFMRYLLDHLHLELQGGFNGVSRSAILQENSTLSASNKCCINGASTVVTAIFGGILQNEVNCLICGTESRKFDPFLDLSLDIPSQFRSKRSKNQENGPVCSLRDCLRSFTDLEELDETELYMCHKCKKKQKSTKKFWIQKLPKVLCLHLKRFHWTAYLRNKVDTYVEFPLRGLDMKCYLLEPENSGPESCLYDLAAVVVHHGSGVGSGHYTAYATHEGRWFHFNDSTVTLTDEETVVKAKAYILFYVEHQAKAGSDKL

Results are given in words; binding and its absence hold for the method and conditions named. Binding seen in cells or lysates may run through a third protein. Binding can be weak; no strength is given. Sequences can lack the tags named with a protein.
